# Results from cells or extracts need not show a direct contact. A negative result means that nothing was seen under these conditions. At least one verdict rests on a figure or table, not on a statement of the authors. Protein sequences can lack the tags named with them. For at least one entry, the source does not settle the construct or the ends of the probe.
# Biological target: T1, Tristetraprolin (TTP) (Homo sapiens) (UniProt P26651)
# T1 sequence (looked up): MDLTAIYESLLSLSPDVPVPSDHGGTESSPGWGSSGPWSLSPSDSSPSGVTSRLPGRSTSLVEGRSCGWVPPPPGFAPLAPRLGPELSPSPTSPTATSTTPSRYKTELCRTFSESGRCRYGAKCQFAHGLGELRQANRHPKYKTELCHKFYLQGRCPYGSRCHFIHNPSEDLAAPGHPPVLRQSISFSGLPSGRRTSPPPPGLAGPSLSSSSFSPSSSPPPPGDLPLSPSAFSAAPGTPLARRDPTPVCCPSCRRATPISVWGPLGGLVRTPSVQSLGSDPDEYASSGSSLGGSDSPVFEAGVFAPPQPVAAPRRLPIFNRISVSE
# Assay: EMSA
# Settings: RNA EMSA (LightShift Chemiluminescent kit, binding buffer composition not given): 20 fmol biotinylated RNA, 4 ug or 5 ug (Methods) cytoplasmic extract, protein in a lysate after overexpression, residues 1-326, label: biotin
Sequence,binding result,other results
GCUAAGGUUAAGCAUUAAUUAGCAAGCAGCACCUUGA [mutDR4-EMSA],no binding,
GCUAAGGUUAAUUUAUUAAUUAUUUAAUUUAUUUACCUUG [wtDR4-EMSA],,"binding result (complex reduced by anti-TTP antibody, not by control antibody): binds"
UAGUCAUGGAAGGAUCAGCAUGCAGGUAGUCAUUCCAGG [mutDR5-EMSA],no binding,
UAGUCAUGGAAGGAUCAUUUAUGCAGGUAGUCAUUCCAGG [wtDR5-EMSA],,binding result (complex reduced compared to DR4): binds

# Source: PMC7465502
